Experimental data taken from publication PMC9249397.

By UniProt entry, the sequences of proteins in these tests, tags left out. Where a name states a change or a piece, a line headed by the entry shows the natural chain unless it says otherwise.
UniProt Q8N7X0: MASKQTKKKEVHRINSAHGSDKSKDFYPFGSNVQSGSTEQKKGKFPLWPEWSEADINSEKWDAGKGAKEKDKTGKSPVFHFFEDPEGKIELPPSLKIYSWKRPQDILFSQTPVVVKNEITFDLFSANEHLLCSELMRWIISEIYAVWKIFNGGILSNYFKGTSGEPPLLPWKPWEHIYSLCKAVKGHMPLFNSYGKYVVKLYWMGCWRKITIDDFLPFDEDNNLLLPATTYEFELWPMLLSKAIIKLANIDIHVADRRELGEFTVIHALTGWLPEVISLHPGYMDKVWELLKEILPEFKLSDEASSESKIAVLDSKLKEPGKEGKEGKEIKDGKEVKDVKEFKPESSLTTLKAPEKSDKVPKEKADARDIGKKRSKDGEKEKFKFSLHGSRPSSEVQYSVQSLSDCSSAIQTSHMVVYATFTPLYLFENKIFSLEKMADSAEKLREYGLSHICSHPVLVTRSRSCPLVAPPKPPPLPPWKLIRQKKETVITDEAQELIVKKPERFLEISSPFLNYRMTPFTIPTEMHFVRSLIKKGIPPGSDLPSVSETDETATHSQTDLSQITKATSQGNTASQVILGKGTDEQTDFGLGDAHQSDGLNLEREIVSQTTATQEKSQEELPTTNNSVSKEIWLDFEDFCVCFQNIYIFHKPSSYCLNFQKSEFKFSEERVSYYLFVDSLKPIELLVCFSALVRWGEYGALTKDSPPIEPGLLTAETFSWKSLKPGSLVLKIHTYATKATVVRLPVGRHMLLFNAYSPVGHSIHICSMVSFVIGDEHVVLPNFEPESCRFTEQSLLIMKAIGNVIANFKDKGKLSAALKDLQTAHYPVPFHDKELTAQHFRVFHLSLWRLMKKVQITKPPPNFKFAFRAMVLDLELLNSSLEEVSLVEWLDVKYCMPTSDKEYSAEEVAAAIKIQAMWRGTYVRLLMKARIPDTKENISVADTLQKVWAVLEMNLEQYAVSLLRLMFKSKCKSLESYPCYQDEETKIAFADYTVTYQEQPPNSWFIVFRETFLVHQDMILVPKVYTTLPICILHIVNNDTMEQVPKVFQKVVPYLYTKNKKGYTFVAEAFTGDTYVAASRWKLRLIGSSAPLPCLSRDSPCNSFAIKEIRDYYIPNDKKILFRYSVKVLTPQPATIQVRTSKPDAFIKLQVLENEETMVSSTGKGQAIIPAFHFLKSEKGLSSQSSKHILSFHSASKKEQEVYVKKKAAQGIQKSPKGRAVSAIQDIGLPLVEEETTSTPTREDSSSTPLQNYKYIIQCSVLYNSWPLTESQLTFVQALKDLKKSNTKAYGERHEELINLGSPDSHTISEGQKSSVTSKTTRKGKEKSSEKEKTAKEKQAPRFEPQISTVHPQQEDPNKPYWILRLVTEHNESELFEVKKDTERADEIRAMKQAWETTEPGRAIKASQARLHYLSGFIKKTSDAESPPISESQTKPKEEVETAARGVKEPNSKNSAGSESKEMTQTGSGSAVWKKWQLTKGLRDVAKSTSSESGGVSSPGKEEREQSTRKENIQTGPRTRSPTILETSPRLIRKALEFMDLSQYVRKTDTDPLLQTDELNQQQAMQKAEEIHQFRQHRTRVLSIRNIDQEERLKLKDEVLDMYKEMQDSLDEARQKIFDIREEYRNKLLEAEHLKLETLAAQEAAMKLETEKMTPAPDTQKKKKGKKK
UniProt Q9P0V9: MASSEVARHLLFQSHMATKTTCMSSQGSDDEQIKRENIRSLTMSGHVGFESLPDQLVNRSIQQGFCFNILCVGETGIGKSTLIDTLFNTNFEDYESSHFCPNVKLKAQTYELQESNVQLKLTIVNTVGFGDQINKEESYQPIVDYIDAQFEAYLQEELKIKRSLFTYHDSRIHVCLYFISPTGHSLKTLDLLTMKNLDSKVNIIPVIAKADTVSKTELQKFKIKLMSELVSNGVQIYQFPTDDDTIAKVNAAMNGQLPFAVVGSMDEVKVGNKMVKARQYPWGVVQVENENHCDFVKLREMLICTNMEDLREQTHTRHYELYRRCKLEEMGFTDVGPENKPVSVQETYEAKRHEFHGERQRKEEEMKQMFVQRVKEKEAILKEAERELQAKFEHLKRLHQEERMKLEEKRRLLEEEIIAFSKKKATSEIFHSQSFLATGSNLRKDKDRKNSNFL

Biological target: ADGB-ΔCCD (UniProt Q8N7X0)
Assay: co-IP; lysates (1% triton buffer) of HEK293 cells (co-)transfected with the two constructs, IP by antibody to the protein or its tag (FLAG, V5, GFP), immunoblot; for GFP-Globin and V5-CaM also after heme depletion (heme-depleted FBS, 3 mM succinylacetone, 24 hr)

CCD mutant SEPT10 (from UniProt Q9P0V9)
binding: binds

These are yes or no findings as the source states them, for the method shown. In cells and extracts the contact can be indirect. Binding calls can cover weak binding; strength is not graded here.
